Test results: patent US12569459B2, “Compositions and methods for treating pulmonary edema or lung inflammation” (priority 2020, dated 2026)
At least one structure is not confirmed: it was looked up by name or label, or the drawing left a doubt.

Legend:
HO-1 = assay: Western blot of HO-1 protein in RLE-6TN cells under hyperoxia; assay type: cell-based, rat; conditions: with T3
Protocol: FIG. 10. HO-1 Upregulation is required for T3-increased RLE-6TN cell survival in hyperoxia. […] The cells were then collected for Western Blot analysis. (B) The cells were incubated in 21% O2 and 5% CO2 for 72 hours in the present of HO-1 inhibitor Tin Protoporphyrin IX(10^−6 M) tinT3 (10^−6 M). […] Cell viability is assessed with trypan blue. The number of viable cells under specific conditions is presented as a percentage of the cell number related to hyperoxia alone. Data are mean±s.d. of three independent experiments with *=P<0.05; **=P<0.01.
(§1) At the end of the hyperoxia exposure period, the viable cells were counted by trypan blue dye exclusion.
(§2) The cells were lysed in lysis buffer containing 20 mM Tris HCl (pH 7.5), 150 mM NaCl, 1 mM EDTA, 1 mM EGTA, 1% (vol/vol) Triton X-100 with protease inhibitors (1 mM PMSF, 2 μg/ml pepstatin, and 10 μg/ml each of aprotinin and leupeptin), and phosphatase inhibitors (2.5 mM sodium pyrophosphate, 1 mM β-glycerophosphate, and 1 mM Na3VO4). The lysate was drawn 10 times through a 25-gauge needle on ice for further lysis and then was centrifuged at 13,000 rpm for 15 minutes at 4° C. The supernatant was collected, and the protein concentrations were determined by use of the BCA protein assay kit (Sigma-Aldrich, St. Louis, MO). Immediately after this step, equal amounts of protein were subjected to Western blotting analysis.

Nrf2 = assay: Western blot of Nrf2 protein in RLE-6TN cells under hyperoxia; assay type: cell-based, rat; conditions: with T3
From the text: FIG. 9. […] The cells were then collected for Western Blotting analysis. (A) Cellular total protein of Nrf2. (B) Nuclear Nrf2.
FIG. 12. T3-induced increase in Nrf2 and HO-1 protein via PI3K in hyperoxia. (A) Western Blot and densitometry data for total Nrf2. (B) Western Blot and densitometry data for cytoplasmic Nrf2. (C) Western Blot and densitometry data for nuclear Nrf2.
as §1
Nuclei were extracted with NE-PER nuclear and cytoplasmic extraction reagents kit (Thermo Fisher Scientific, Inc., Waltham, MA) following the manufacturer's instruction.
as §2

COC[C@H]1OC(=O)c2coc3c2[C@@]1(C)C1=C(C3=O)[C@@H]2CCC(=O)[C@@]2(C)C[C@H]1OC(C)=O [wortmannin]
Effect on T3-induced increase in total cellular HO-1 protein (HO-1): blocked
Effect on T3-induced increases in Nrf2 protein (Nrf2): blocked the T3-induced increases in both Nrf2 total cellular protein and nuclear protein
